ChEMBL document CHEMBL4837237, “Broomeanamides: Cyclic Octapeptides from an Isolate of the Fungicolous Ascomycete Sphaerostilbella broomeana from India” (J Nat Prod, 2021)
≈ marks a conversion by molar mass, not a printed value.

Test system: Candida albicans
Experiment: Antifungal activity against Candida albicans ATCC 10231 assessed as fungal growth inhibition incubated for 48 hrs by alamarBlue dye based assay
Format: functional
Outline: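 Broth MIC, modified CLSI method. Overnight cultures diluted to OD600 0.8 in PBS, then 1000-fold in MOPS-buffered RPMI-1640. Exposed to serial dilutions from 0.25 to 128 μM. Growth read by adding 10% alamarBlue. S. aureus ATCC 43300: 24 h at 37 °C. C. albicans ATCC 10231: 48 h at 23 °C. C. neoformans H99: 48 h at 23 and at 37 °C. Controls: chlortetracycline + streptomycin (bacterium), amphotericin B (fungi).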

MIC: 1.7 µg/mL (≈ 1.84 µM)
SMILES: C[C@@H]1[C@H](O)[C@@H](C)/C=C/C=C/C=C/C=C/C=C/C=C/C=C/[C@H](O[C@@H]2O[C@H](C)[C@@H](O)[C@H](N)[C@@H]2O)C[C@@H]2O[C@](O)(C[C@@H](O)C[C@@H](O)[C@H](O)CC[C@@H](O)C[C@@H](O)CC(=O)O[C@H]1C)C[C@H](O)[C@H]2C(=O)O [AMPHOTERICIN B]
